Reference: patent publication US20230212549A1 (priority 2021, published 2023)
For some assays here: Strings that start with PEPTIDE1 are HELM notation: dots part the residues, brackets hold end groups and non-standard residues.

Assays:
[1] = general procedure: Fmoc solid-phase peptide synthesis; polystyrene (PS, DEG), ChemMatrix (CM) or TentaGel (TG) resin; linkers trityl, wang and rink amide; details: for step yield: late stage modification step; for conjugation yield: conjugation step
[2] = general procedure: Fmoc solid-phase peptide synthesis; Rink amide; details: whole synthesis, scale 50 μmol
[3] = general procedure: Fmoc solid-phase peptide synthesis; trityl; details: whole synthesis, scale 50 μmol, thioether ring
[4] = general procedure: Fmoc solid-phase peptide synthesis; Fmoc-Cys(Trt) WANG Tentagel; details: whole synthesis, scale 50 μmol, thioether ring
[5] = whole synthesis, overall, scale of the general procedure 50 μmol and 100 μmol, thioether ring
[6] = whole synthesis, scale 100 μmol, thioether ring

Work on “Hex-Cys(tMeBn(H-PP))-Pro-Pro-Thr-Gln-Phe-Cys]-Asp-NH2” yielded an isolated yield ([1]; whole synthesis, on resin loading, scale of the general procedure 50 μmol and 100 μmol, run 1) of 25.3%, an isolated yield ([1]; whole synthesis, on resin loading, scale of the general procedure 50 μmol and 100 μmol, run 2) of 28.4% and an isolated mass ([2]; run 1) of 15.3 mg. For the same substance, the isolated mass ([2]; run 2) was 17.2 mg.

“Hex-[Cys(3MeBn)-Pro-Pro-Thr-Gln-Phe-Cys]-Asp-NH2” gave an isolated yield ([1]; whole synthesis, scale 50 μmol, thioether ring) of 28.8% and an isolated mass ([2]; thioether ring) of 16.0 mg.

In the case of “Hex-[Cys(tMeBn(DOTA-AET))-Pro-Pro-Thr-Gln-Phe-Cys]-OH [3BP-3624]”, the step yield ([1]; thioether ring, run 1) is reported as 82%.

In the case of “Hex-[Cys(tMeBn(DOTA-AET))-Pro-Pro-Thr-Gln-Phe-Cysol]”, the isolated yield [1, 5] is reported as 10.7% overall yield and the isolated mass [3] is reported as 7.8 mg.

“Hex-[Cys(tMeBn(DOTA-PP))-Pro-Pro-Thr-Gln-Phe-Cys]-Asp-NH2 [3BP-3590]” showed a step yield ([1]; thioether ring, run 1) of 68.1%.

With “Hex-[Cys(tMeBn(DTPA(tBu)4-O2Oc-AET))-Pro-Pro-Thr-Gln-Phe-Cys]-OH” the conjugation yield [1] was 53% yield.

Work on “Hex-[Cys(tMeBn(H-AET))-Pro-Pro-Thr-Gln-Phe-Cys]-OH” yielded an isolated yield ([1]; whole synthesis, on resin loading, scale of the general procedure 50 μmol and 100 μmol, thioether ring, run 1) of 32.8%, an isolated yield ([1]; whole synthesis, on resin loading, scale of the general procedure 50 μmol and 100 μmol, thioether ring, run 2) of 35.9% and an isolated mass ([3]; run 1) of 17.8 mg. It also gave an isolated mass ([3]; run 2) of 19.47 mg.

Work on “Hex-[Cys(tMeBn(H-O2Oc-AET))-Pro-Pro-Thr-Gln-Phe-Cys]-OH” yielded a conjugation yield [1] of 29% yield.

Work on “Hex-[Cys(tMeBn(NODAGA-AET))-Pro-Pro-Thr-Gln-Phe-Cys]-OH” yielded a step yield ([1]; thioether ring) of 80%.

In the case of “Hex-[Cys-(tMeBn(Bio-Ttds-Ttds-Ttds-Ttds-AET))-Pro-Pro-Thr-Gln-Phe-Cys]-OH”, the conjugation yield ([1]; thioether ring) is reported as 18% yield.

Substance “Hex-[Cys-(tMeBn(DTPA-O2Oc-AET))-Pro-Pro-Thr-Gln-Phe-Cys]-OH” has a conjugation yield ([1]; thioether ring) of 8% and a step yield ([1]; thioether ring) of 53% yield.

“Hex-[Cys-(tMeBn(H-HYNIC-AET))-Pro-Pro-Thr-Gln-Phe-Cys]-OH” gave a conjugation yield ([1]; thioether ring) of 3.4% and a step yield ([1]; thioether ring) of 7% yield.

In the case of “Hex-[Cys-(tMeBn(N4Ac-02Oc-AET))-Pro-Pro-Thr-Gln-Phe-Cys]-OH”, the conjugation yield ([1]; thioether ring) is reported as 55% yield.

“Hex-[Cys-(tMeBn(NOTA-AET))-Pro-Pro-Thr-Gln-Phe-Cys]-OH” gave an isolated yield [1, 6] of 4%.

In the case of “Hex-[Cys-(tMeBn(NOTA-Ttds-AET))-Pro-Pro-Thr-Gln-Phe-Cys]-OH”, the isolated yield [1, 6] is reported as 6%.

With “Hex-[Cys-(tMeBn(ReON4Ac-02Oc-AET))-Pro-Pro-Thr-Gln-Phe-Cys]-OH” the step yield ([1]; thioether ring) was 21% yield.

With “Hex-[Cys-Pro-Pro-Thr-Gln-Phe-Cys]-Asp-NH2 (m-xylene cyclised)” the isolated yield ([2]; on resin loading) was 30.4% and the isolated mass [2] was 16.9 mg.

“N4Ac-Glu(AGLU)-Ttds-Nle-[Cys-(3MeBn)-Pro-Pro-Thr-Gln-Phe-Cys]-OH” showed an isolated yield [4] of 10%.

In the case of “PEPTIDE1{[Hex].C.P.P.T.Q.F.C.D.[am]}|CHEM1{[tMeBn(DOTA-PP)]}$PEPTIDE1,CHEM1,2:R3-1:R1|PEPTIDE1,CHEM1,8:R3-1:R2$$$V2.0”, the conjugation yield [1] is reported as 85%.

For “PEPTIDE1{[Hex].C.P.P.T.Q.F.C}|CHEM1{[tMeBn(DOTA-AET)]}$PEPTIDE1,CHEM1,2:R3-1:R1|PEPTIDE1,CHEM1,8:R3-1:R2$$$V2.0”, the conjugation yield [1] was 77.4% yield.

“Pentyl-SO2-[Cys(tMeBn(DOTA-PP))-Pro-Pro-Thr-Gln-Phe-Cys]-Asp-NH2” showed an isolated yield [1, 5] of 8.7% overall yield.

For “nBu-CAyl-[Cys(tMeBn(DOTA-AET))-Pro-Pro-Thr-Gln-Phe-Cys]-OH”, the isolated yield ([1]; whole synthesis, scale of the general procedure 50 μmol and 100 μmol, thioether ring) was 25.6% yield and the isolated mass ([1]; whole synthesis, thioether ring) was 28.28 mg.

“nBu-CAyl-[Cys(tMeBn(NOPO-AET))-Pro-Pro-Thr-Gln-Phe-Cys]-OH” showed a conjugation yield ([1]; thioether ring) of 32.0%.
